Source: paper doi:10.1101/2025.10.09.681383
No constants are given. Whether binding was seen depends on the method and setting. In cells and extracts the contact can be indirect. Some binding calls cover weakened binding; strength is not graded here.

Chains of the proteins cited; added tags and fusions are not shown. Residues count along the entry.
UniProt P70302, residues 23-685: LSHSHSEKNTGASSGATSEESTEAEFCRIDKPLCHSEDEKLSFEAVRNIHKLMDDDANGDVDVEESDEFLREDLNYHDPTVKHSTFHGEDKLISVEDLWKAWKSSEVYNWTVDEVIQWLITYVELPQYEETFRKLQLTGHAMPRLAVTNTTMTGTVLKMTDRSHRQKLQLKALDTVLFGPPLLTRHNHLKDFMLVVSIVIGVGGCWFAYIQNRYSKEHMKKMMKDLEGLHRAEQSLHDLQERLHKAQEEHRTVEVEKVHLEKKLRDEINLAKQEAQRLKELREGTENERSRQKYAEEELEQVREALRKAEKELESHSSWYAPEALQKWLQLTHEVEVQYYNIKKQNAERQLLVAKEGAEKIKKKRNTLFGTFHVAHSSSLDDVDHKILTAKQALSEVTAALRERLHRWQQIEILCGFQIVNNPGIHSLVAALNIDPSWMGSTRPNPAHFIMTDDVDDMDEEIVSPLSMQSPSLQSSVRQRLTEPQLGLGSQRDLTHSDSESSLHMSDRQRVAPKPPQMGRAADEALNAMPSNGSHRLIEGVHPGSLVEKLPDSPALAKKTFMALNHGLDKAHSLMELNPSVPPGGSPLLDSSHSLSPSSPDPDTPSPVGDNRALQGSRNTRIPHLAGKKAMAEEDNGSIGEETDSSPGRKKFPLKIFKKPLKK

Legend:
[1] = molecular target: T1, ΔF233 DHHC21 (depilated mutant) (mouse (endogenous in spleen)) (UniProt Q9D270); test: co-IP; spleen lysates (1 mg; 1% dodecyl-ß-D-maltoside in DPBS with protease inhibitors) of WT and depilated mice, anti-DHHC21 antibody overnight at 4 °C, protein A agarose, Western blot for STIM1
T1 sequence: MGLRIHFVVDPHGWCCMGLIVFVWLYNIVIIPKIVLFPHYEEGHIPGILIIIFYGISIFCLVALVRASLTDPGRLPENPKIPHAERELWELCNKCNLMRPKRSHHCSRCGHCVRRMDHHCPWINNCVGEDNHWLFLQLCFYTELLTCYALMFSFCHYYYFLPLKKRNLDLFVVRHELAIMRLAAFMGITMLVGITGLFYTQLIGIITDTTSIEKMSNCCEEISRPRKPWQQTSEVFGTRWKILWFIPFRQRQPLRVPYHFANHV

[2] = molecular target: T2, DHHC21 (wild type) (mouse (endogenous in spleen)) (UniProt Q9D270); test: as above
T2 sequence: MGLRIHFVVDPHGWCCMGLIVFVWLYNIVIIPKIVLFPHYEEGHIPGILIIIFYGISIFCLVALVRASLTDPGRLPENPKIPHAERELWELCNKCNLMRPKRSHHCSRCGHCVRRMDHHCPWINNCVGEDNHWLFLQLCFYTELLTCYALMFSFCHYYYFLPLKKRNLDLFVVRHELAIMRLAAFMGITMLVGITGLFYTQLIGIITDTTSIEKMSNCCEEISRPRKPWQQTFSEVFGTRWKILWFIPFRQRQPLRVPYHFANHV

binding [1]: binds
binding [2]: binds
Substance: Stromal Interaction Molecule 1 (STIM1) (from UniProt P70302 23-685)
